From US20180055768A1
No constants are given. Whether binding was seen depends on the method and setting. In cells and extracts the contact can be indirect. Some entries that bind do so weakly or less than the wild type. For some assays here: Tags and fused reporters may be left off the sequences shown. Each block holds one binder with its values, some of them ahead of it.

Protein sequences, listed by entry. Tags and fused reporters are not part of them. Lines headed by an entry give the natural chain unless they say otherwise; changes in a name come on top.
UniProt Q99816: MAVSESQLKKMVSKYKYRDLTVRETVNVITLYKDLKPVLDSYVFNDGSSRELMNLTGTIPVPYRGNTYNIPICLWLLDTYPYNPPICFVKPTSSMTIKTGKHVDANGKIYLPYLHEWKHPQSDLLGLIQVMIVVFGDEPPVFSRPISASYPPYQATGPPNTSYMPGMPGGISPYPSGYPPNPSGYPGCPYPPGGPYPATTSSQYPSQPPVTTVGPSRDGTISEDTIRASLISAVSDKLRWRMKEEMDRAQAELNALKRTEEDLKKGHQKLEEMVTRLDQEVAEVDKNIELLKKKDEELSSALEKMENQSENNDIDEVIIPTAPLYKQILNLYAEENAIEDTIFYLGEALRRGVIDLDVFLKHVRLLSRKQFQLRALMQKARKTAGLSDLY
UniProt O00308: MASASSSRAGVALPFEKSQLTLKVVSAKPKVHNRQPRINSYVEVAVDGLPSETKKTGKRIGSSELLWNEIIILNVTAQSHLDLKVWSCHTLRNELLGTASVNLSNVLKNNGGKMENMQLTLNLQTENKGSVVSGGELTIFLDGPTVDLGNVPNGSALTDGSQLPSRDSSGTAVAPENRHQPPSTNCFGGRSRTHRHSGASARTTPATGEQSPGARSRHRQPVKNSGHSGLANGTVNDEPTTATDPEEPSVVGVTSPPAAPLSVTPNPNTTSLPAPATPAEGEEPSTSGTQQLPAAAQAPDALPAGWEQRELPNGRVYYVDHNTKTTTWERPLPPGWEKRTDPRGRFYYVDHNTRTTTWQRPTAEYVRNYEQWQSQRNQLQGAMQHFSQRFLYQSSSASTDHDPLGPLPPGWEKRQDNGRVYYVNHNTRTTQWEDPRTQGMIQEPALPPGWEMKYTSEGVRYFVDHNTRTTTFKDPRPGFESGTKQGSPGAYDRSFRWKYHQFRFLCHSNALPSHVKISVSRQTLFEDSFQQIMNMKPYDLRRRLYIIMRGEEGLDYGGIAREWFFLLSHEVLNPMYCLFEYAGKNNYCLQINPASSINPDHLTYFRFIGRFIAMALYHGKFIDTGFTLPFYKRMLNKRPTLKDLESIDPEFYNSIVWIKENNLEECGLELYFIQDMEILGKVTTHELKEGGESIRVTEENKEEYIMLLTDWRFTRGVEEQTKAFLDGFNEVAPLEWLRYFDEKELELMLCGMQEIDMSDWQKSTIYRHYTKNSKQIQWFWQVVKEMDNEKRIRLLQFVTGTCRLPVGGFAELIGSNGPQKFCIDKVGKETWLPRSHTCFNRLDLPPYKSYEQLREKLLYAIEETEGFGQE

Tests used:
[1] = target: ARRDC1 (constructs of FIG. 9, plasmids not given) (Homo sapiens) (UniProt Q8N5I2); assay: anti-FLAG co-immunoprecipitation from 293T cells, Western blot (FIG. 9)
[2] = target: HA-tagged TSG101 (wild type) (Homo sapiens) (UniProt Q99816); assay: anti-FLAG co-immunoprecipitation from 293T cells, Western blot
[3] = target: HA-tagged TSG101 (wild type) (Homo sapiens) (UniProt Q99816); assay: co-immunoprecipitation and yeast two-hybrid, as summed up in the discussion
[4] = target: HA-tagged TSG101 (wild type) (Homo sapiens) (UniProt Q99816); assay: anti-FLAG co-immunoprecipitation from 293T cells, Western blot (FIG. 1C)
GFP-tagged WWP2 = GFP-tagged WWP2 (UniProt O00308); assay: anti-HA co-immunoprecipitation from 293T cells, Western blot (FIG. 5B)

binding [1]: binds
B1: ARRDC1 (constructs of FIG. 9, plasmids not specified in the text) (protein)
chain: MGRVQLFEISLSHGRVVYSPGEPLAGTVRVRLGAPLPFRAIRVTCIGSCGVSNKANDTAWVVEEGYFNSSLSLADKGSLPAGEHSFPFQFLLPATAPTSFEGPFGKIVHQVRAAIHTPRFSKDHKCSLVFYILSPLNLNSIPDIEQPNVASATKKFSYKLVKTGSVVLTASTDLRGYVVGQALQLHADVENQSGKDTSPVVASLLQKVSYKAKRWIHDVRTIAEVEGAGVKAWRRAQWHEQILVPALPQSALPGCSLIHIDYYLQVSLKAPEATVTLPVFIGNIAVNHAPVSPRPGLGLPPGAPPLVVPSAPPQEEAEAEAAAGGPHFLDPVFLSTKSHSQRQPLLATLSSVPGAPEPCPQDGSPASHPLHPPLCISTGATVPYFAEGSGGPVPTTSTLILPPEYSSWGYPYEAPPSYEQSCGGVEPSLTPES

binding [2]: binds
binding [3]: binds
binding [4]: binds
B2: FLAG-tagged wild-type (wt) ARRDC1 (protein, not shown: small tags and cut ends)
chain: MGRVQLFEISLSHGRVVYSPGEPLAGTVRVRLGAPLPFRAIRVTCIGSCGVSNKANDTAWVVEEGYFNSSLSLADKGSLPAGEHSFPFQFLLPATAPTSFEGPFGKIVHQVRAAIHTPRFSKDHKCSLVFYILSPLNLNSIPDIEQPNVASATKKFSYKLVKTGSVVLTASTDLRGYVVGQALQLHADVENQSGKDTSPVVASLLQKVSYKAKRWIHDVRTIAEVEGAGVKAWRRAQWHEQILVPALPQSALPGCSLIHIDYYLQVSLKAPEATVTLPVFIGNIAVNHAPVSPRPGLGLPPGAPPLVVPSAPPQEEAEAEAAAGGPHFLDPVFLSTKSHSQRQPLLATLSSVPGAPEPCPQDGSPASHPLHPPLCISTGATVPYFAEGSGGPVPTTSTLILPPEYSSWGYPYEAPPSYEQSCGGVEPSLTPES

binding (GFP-tagged WWP2): binds
B3: HA-tagged wt ARRDC1 (protein, not shown: small tags and cut ends)
chain: MGRVQLFEISLSHGRVVYSPGEPLAGTVRVRLGAPLPFRAIRVTCIGSCGVSNKANDTAWVVEEGYFNSSLSLADKGSLPAGEHSFPFQFLLPATAPTSFEGPFGKIVHQVRAAIHTPRFSKDHKCSLVFYILSPLNLNSIPDIEQPNVASATKKFSYKLVKTGSVVLTASTDLRGYVVGQALQLHADVENQSGKDTSPVVASLLQKVSYKAKRWIHDVRTIAEVEGAGVKAWRRAQWHEQILVPALPQSALPGCSLIHIDYYLQVSLKAPEATVTLPVFIGNIAVNHAPVSPRPGLGLPPGAPPLVVPSAPPQEEAEAEAAAGGPHFLDPVFLSTKSHSQRQPLLATLSSVPGAPEPCPQDGSPASHPLHPPLCISTGATVPYFAEGSGGPVPTTSTLILPPEYSSWGYPYEAPPSYEQSCGGVEPSLTPES
